From article PMC11977203
Positions count from the first letter of the chain named. No constants are given. Whether binding was seen depends on the method and setting. Binding seen in cells or lysates may run through a third protein. Some entries that bind do so weakly or less than the wild type.

By UniProt entry, the sequences of proteins in these tests, tags left out.
UniProt Q9UNE7: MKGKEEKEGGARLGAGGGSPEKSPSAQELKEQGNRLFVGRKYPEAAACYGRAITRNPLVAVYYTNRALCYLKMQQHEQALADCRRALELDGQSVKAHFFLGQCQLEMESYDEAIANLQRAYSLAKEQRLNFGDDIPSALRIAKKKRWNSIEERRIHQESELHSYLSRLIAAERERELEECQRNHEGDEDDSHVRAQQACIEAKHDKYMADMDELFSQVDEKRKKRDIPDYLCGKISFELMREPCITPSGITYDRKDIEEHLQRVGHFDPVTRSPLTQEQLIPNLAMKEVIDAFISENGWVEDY

Legend:
BCAT1 K39R mutant = molecular target: T1, BCAT1 K39R mutant (UniProt P54687); assay: co-IP; CHIP with wild-type BCAT1 or BCAT1 K39R mutant in U251 cells, with or without SIRT5 overexpression; western blot
T1 sequence: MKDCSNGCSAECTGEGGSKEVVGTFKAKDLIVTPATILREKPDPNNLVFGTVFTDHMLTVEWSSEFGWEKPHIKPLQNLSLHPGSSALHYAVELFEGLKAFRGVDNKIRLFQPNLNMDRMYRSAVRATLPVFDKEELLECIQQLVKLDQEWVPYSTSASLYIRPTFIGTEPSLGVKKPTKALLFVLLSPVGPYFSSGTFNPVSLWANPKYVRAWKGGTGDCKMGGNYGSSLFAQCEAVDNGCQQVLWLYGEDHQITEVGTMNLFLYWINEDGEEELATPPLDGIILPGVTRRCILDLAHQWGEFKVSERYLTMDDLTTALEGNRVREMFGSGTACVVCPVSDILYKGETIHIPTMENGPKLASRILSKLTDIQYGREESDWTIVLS

wild-type BCAT1 = molecular target: T2, wild-type BCAT1 (UniProt P54687); assay: as above
T2 sequence: T1 sequence with R39K

- binding (BCAT1 K39R mutant): binds
- binding (wild-type BCAT1): binds
Substance: Flag-tagged CHIP (from UniProt Q9UNE7 1-303) (enzyme)
